Results are given in words; binding and its absence hold for the method and conditions named. Binding seen in cells or lysates may run through a third protein. A yes stands for co-enrichment or nearness to the bait. Other partners may have been found.
Molecular target: FS-tagged Gα13Q226L (constitutively active mutant of Gα13) (human) (UniProt Q14344)
Assay: affinity purification with mass spectrometry; tandem affinity purification from HEK293 cells transfected with FS or FS-Gα13QL, 48 h; lysate (13 mg) on Strep-Tactin resin, eluted by desthiobiotin, then anti-FLAG M2 resin, eluted by 3 x FLAG peptide; SDS-PAGE, bands identified by MALDI-TOF; lysis buffer 50 mM Tris-Cl pH 7.4, 150 mM NaCl, 1 mM EDTA, 0.1% NP40, 5% glycerol

Protein sequences, listed by entry. Tags and fused reporters are not part of them. Lines headed by an entry give the natural chain unless they say otherwise; changes in a name come on top.
UniProt Q14344: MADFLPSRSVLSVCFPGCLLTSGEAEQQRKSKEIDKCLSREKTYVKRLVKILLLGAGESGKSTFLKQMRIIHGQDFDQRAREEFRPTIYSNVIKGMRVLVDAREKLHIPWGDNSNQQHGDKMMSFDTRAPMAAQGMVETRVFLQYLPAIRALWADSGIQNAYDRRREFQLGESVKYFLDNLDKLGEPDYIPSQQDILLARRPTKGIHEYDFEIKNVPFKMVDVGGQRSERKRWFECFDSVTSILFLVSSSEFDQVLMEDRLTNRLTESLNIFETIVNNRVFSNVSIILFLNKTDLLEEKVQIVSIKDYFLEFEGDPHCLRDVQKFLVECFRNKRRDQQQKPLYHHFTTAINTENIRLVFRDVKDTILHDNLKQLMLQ
UniProt Q9NPQ8: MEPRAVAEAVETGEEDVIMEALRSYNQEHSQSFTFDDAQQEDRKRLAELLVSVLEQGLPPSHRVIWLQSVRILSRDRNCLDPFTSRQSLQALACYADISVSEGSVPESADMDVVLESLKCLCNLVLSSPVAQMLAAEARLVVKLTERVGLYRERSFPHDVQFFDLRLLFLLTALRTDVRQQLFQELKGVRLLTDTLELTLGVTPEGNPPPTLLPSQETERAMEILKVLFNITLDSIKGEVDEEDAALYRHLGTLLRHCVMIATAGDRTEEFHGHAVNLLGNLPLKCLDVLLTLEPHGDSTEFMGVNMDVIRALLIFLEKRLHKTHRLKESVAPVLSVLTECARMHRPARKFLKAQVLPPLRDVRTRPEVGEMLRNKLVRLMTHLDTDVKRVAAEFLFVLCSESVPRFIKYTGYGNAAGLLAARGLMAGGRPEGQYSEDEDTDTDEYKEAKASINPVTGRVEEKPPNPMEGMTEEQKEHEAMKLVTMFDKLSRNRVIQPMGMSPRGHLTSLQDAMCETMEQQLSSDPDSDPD

With “Ric-8A (Resistance to inhibitors of cholinesterase 8 homolog A), endogenous (from UniProt Q9NPQ8 1-531)” the binding was “binds”.

Reference: paper PMC4831272
